In the supplement of paper PMC12823440, “Inhibitors supercharge kinase turnover through native proteolytic circuits” (Nature, 2025):
Counter-ions that a name gives are not always drawn. This is one part of the list. The calls rarely recur for the same compound in another form.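 In K562 cells expressing nanoluciferase-fused kinases, luminescence was recorded at 4 h intervals between 2 and 18 h, normalized as percent of control with DMSO at 100% and a positive control at 0%. A significant (2 sigma) signal drop marks a time point as decreased. The authors' rule for a hit is not shown and takes in more than the number of time points.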

Protein sequences, listed by entry. Tags and fused reporters are not part of them. Lines headed by an entry give the natural chain unless they say otherwise; changes in a name come on top.
UniProt P00519, whole entry: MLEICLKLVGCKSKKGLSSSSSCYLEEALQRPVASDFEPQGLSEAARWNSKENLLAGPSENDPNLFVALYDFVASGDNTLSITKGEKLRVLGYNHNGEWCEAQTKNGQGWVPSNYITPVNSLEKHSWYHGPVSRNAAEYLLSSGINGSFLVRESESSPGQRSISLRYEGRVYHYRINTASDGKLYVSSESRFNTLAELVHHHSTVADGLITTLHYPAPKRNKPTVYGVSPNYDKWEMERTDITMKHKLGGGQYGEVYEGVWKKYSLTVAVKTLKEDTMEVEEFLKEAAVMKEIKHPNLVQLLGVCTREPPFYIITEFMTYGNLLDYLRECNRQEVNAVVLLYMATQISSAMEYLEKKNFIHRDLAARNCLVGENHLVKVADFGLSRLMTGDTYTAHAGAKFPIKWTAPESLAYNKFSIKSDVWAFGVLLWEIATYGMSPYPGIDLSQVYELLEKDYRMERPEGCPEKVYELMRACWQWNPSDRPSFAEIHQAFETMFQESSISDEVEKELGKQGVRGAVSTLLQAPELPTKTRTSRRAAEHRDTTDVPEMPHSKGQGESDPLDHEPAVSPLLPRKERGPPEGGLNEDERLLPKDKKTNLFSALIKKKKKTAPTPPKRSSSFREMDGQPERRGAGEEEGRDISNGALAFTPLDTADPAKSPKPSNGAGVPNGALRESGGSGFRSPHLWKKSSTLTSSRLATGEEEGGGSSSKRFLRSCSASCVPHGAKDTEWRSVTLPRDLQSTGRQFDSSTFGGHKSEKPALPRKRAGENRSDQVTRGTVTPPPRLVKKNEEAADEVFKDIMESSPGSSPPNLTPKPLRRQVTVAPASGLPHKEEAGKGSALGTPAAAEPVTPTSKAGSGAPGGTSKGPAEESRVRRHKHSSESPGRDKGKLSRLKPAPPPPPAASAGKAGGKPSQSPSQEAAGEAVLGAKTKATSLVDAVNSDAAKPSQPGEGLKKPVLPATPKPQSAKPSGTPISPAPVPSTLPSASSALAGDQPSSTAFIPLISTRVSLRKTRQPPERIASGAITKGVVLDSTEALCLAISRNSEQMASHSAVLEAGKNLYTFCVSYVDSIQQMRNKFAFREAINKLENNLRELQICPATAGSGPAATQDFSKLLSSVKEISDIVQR
UniProt P31749: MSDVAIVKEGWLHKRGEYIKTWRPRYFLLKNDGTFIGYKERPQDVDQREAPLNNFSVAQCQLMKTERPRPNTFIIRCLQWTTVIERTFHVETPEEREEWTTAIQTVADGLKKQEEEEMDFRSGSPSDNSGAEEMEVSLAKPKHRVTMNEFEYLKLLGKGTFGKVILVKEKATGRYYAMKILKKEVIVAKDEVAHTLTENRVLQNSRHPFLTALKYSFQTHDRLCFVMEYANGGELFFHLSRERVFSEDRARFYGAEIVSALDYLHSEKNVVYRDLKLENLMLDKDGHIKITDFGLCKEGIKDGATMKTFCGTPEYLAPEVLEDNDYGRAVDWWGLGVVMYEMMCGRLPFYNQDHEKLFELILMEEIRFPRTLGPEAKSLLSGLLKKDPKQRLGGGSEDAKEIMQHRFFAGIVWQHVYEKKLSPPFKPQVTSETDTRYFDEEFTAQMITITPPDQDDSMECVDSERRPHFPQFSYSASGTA
UniProt P10398: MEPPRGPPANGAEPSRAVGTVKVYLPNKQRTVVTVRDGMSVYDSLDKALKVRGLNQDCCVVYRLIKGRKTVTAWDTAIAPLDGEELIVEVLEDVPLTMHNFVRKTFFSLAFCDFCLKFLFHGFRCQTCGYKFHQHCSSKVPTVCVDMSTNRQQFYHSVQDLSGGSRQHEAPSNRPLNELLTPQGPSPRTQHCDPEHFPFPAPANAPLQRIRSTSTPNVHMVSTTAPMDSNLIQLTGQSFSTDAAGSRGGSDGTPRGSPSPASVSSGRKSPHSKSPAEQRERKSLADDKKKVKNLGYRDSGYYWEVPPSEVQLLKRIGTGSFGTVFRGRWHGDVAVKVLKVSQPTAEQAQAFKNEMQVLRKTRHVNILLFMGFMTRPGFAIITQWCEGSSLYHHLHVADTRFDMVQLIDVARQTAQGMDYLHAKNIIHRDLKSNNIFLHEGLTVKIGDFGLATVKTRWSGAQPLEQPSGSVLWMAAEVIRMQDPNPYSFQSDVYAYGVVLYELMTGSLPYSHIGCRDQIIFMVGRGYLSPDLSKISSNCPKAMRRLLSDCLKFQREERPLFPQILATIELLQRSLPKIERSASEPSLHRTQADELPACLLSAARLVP
UniProt O14965: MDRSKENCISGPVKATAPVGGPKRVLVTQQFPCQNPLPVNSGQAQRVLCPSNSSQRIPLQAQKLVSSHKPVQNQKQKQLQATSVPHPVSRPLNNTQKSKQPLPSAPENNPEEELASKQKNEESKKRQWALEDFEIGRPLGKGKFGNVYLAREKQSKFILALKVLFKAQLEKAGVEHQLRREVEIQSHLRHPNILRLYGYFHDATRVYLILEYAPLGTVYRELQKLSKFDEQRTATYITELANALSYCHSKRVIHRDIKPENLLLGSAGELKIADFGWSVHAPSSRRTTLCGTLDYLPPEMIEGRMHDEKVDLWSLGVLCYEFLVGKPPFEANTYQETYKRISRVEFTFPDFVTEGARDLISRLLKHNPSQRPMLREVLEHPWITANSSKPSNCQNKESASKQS
UniProt Q96GD4, whole entry: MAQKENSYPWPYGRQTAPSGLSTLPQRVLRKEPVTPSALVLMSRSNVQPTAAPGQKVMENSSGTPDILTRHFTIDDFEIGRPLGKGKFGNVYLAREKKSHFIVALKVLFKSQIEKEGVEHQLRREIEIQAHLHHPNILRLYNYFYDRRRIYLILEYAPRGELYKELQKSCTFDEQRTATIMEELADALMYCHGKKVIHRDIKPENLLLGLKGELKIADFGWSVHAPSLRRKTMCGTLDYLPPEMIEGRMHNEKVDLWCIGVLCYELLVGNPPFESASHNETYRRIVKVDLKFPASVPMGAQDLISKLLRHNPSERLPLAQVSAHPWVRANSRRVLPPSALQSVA
UniProt Q9UQB9: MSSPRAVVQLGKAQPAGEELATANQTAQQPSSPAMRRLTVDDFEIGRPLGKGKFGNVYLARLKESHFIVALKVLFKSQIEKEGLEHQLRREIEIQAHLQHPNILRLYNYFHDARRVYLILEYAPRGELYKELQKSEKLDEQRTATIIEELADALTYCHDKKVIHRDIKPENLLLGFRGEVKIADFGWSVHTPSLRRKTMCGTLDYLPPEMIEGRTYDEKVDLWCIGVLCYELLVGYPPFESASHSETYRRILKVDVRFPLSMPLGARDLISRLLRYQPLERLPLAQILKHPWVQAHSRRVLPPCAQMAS
UniProt P51451: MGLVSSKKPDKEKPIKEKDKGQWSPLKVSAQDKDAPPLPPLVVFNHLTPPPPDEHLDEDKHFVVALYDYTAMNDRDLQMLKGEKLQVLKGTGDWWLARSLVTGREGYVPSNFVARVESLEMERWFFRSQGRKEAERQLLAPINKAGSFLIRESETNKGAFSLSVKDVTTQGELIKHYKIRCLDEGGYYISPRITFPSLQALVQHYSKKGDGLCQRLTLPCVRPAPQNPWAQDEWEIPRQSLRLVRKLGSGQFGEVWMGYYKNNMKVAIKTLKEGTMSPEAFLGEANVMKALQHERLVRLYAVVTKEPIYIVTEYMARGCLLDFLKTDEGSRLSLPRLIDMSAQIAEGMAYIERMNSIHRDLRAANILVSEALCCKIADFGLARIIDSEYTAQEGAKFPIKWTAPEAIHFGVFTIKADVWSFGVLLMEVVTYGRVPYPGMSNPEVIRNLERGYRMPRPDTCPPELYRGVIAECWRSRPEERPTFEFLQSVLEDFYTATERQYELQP
UniProt P51813: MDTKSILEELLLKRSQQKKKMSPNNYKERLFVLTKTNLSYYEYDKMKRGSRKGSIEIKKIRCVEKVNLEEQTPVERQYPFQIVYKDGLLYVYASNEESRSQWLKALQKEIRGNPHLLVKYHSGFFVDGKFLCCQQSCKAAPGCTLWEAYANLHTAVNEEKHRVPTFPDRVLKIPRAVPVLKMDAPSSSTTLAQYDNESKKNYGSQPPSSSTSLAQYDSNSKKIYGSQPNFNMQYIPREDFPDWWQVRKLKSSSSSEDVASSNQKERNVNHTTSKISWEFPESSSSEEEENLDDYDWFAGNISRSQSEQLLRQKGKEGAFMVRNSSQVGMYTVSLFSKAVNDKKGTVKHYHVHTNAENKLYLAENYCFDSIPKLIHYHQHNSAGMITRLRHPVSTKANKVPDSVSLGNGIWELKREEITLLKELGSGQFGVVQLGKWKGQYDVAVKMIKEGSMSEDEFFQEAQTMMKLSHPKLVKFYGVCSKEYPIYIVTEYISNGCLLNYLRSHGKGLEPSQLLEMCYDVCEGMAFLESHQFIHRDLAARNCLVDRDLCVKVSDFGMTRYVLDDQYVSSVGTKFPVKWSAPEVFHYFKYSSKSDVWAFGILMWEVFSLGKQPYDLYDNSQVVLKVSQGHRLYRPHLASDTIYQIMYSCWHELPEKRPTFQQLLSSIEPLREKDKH
UniProt P15056, whole entry, looked up: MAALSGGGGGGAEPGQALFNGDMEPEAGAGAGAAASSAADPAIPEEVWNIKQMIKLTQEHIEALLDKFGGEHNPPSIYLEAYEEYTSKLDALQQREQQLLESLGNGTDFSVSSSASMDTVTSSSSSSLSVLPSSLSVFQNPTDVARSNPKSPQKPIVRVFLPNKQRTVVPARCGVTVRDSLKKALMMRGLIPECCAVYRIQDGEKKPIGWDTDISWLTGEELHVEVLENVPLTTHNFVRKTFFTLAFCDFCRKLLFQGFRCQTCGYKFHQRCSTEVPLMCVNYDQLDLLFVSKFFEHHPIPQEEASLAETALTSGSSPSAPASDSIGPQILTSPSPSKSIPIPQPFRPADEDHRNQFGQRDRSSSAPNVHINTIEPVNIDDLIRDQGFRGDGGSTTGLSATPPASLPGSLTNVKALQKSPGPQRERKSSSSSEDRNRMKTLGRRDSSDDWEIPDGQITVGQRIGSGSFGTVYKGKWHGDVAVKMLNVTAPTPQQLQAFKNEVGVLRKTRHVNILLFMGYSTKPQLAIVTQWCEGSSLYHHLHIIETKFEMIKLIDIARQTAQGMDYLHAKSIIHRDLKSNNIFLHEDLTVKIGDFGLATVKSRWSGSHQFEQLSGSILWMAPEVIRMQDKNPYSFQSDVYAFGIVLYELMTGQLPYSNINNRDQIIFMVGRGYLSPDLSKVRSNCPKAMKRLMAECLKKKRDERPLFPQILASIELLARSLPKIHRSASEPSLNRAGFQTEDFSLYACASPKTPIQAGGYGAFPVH

Columns and labels:
Test in all cases: kinase-Nluc reporter destabilization hit call (1 = scored as downregulated) (binary); higher = compound decreases kinase abundance
Conditions in all cases: K562, 2-18 h
[1] = target: ABL1 (UniProt P00519)
[2] = target: AKT1 (UniProt P31749)
[3] = target: ALK (UniProt Q9UM73)
[4] = target: ARAF (UniProt P10398)
[5] = target: AURKA (UniProt O14965)
[6] = target: AURKB (UniProt Q96GD4)
[7] = target: AURKC (UniProt Q9UQB9)
[8] = target: BLK (UniProt P51451)
[9] = target: BMX (UniProt P51813)
[10] = target: BRAF (UniProt P15056)

Measured: kinase-Nluc reporter destabilization hit call

CNC(=O)c1ccc(Nc2ncc(C(F)(F)F)c(NCc3nccnc3N(C)S(C)(=O)=O)n2)cc1 [Defactinib (hydrochloride)]
inactive: [1]; 10 µM 0 | [2]; 10 µM 0 | [3]; 10 µM 0 | [4]; 10 µM 0 | [5]; 10 µM 0 | [6]; 10 µM 0 | [7]; 10 µM 0 | [8]; 10 µM 0 | [9]; 10 µM 0 | [10]; 10 µM 0

C=CC(=O)Nc1cc2c(Nc3ccc(F)c(Cl)c3)ncnc2cc1C#CC(C)(C)N1CCN(C)CC1
inactive: [1]; 2.5 µM 0 | [2]; 2.5 µM 0 | [3]; 2.5 µM 0 | [4]; 2.5 µM 0 | [5]; 2.5 µM 0 | [6]; 2.5 µM 0 | [7]; 2.5 µM 0 | [8]; 2.5 µM 0 | [10]; 2.5 µM 0
active: [9]; 2.5 µM 1

O=C(O)c1ccc2c(c1)nc(Nc1cccc(Cl)c1)c1ccncc12 [Silmitasertib]
active: [9]; 10 µM 1 | [10]; 10 µM 1
inactive: [1]; 10 µM 0 | [2]; 10 µM 0 | [3]; 10 µM 0 | [4]; 10 µM 0 | [5]; 10 µM 0 | [6]; 10 µM 0 | [7]; 10 µM 0 | [8]; 10 µM 0

N=C(N)NC(=O)c1nc(Cl)c(N)nc1N [Amiloride (hydrochloride)]
inactive: [1]; 10 µM 0 | [2]; 10 µM 0 | [3]; 10 µM 0 | [4]; 10 µM 0 | [5]; 10 µM 0 | [6]; 10 µM 0 | [7]; 10 µM 0 | [8]; 10 µM 0 | [9]; 10 µM 0 | [10]; 10 µM 0

O=C1Nc2ccccc2/C1=C/c1ccccn1 [(E/Z)-GSK-3β inhibitor 1]
inactive: [1]; 10 µM 0 | [2]; 10 µM 0 | [3]; 10 µM 0 | [4]; 10 µM 0 | [5]; 10 µM 0 | [6]; 10 µM 0 | [7]; 10 µM 0 | [8]; 10 µM 0 | [9]; 10 µM 0 | [10]; 10 µM 0

CCS(=O)(=O)N1CCN(c2ccc(Nc3ncc(C(N)=O)c(NC4CC4)n3)cc2)CC1 [Cerdulatinib (hydrochloride)]
inactive: [1]; 10 µM 0 | [2]; 10 µM 0 | [3]; 10 µM 0 | [4]; 10 µM 0 | [5]; 10 µM 0 | [6]; 10 µM 0 | [7]; 10 µM 0 | [8]; 10 µM 0 | [9]; 10 µM 0 | [10]; 10 µM 0

CCc1nc(C(N)=O)c(Nc2ccc(N3CCC(N4CCN(C)CC4)CC3)c(OC)c2)nc1NC1CCOCC1 [Gilteritinib]
inactive: [1]; 2 µM 0 | [2]; 2 µM 0 | [3]; 2 µM 0 | [4]; 2 µM 0 | [5]; 2 µM 0 | [6]; 2 µM 0 | [7]; 2 µM 0 | [8]; 2 µM 0 | [9]; 2 µM 0 | [10]; 2 µM 0

COc1cc2c(-c3cnn4cc(N5CCC(N6CCN(C)CC6)CC5)cnc34)ccnc2cc1F [ALK2-IN-4 (succinate)]
inactive: [1]; 10 µM 0 | [2]; 10 µM 0 | [3]; 10 µM 0 | [4]; 10 µM 0 | [5]; 10 µM 0 | [6]; 10 µM 0 | [7]; 10 µM 0 | [8]; 10 µM 0 | [9]; 10 µM 0 | [10]; 10 µM 0

C=CC(=O)Nc1cc(Nc2nccc(-c3cn(C)c4ccccc34)n2)c(OC)cc1N(C)CCN(C)C [Osimertinib]
inactive: [1]; 2.5 µM 0 | [2]; 2.5 µM 0 | [3]; 2.5 µM 0 | [4]; 2.5 µM 0 | [5]; 2.5 µM 0 | [6]; 2.5 µM 0 | [7]; 2.5 µM 0 | [8]; 2.5 µM 0 | [9]; 2.5 µM 0 | [10]; 2.5 µM 0

Nc1cncc(-c2cn3ccnc3c(Nc3ccc(N4CCN(C5COC5)CC4)cc3)n2)n1 [Lanraplenib]
inactive: [1]; 10 µM 0 | [2]; 10 µM 0 | [3]; 10 µM 0 | [4]; 10 µM 0 | [5]; 10 µM 0 | [6]; 10 µM 0 | [7]; 10 µM 0 | [8]; 10 µM 0 | [9]; 10 µM 0 | [10]; 10 µM 0

Cc1[nH]c(/C=C2\C(=O)Nc3ccc(F)cc32)c(C)c1C(=O)NCCN1CCCC1 [Toceranib (phosphate)]
inactive: [1]; 2 µM 0 | [2]; 2 µM 0 | [3]; 2 µM 0 | [4]; 2 µM 0 | [5]; 2 µM 0 | [6]; 2 µM 0 | [7]; 2 µM 0 | [8]; 2 µM 0 | [9]; 2 µM 0 | [10]; 2 µM 0

N#CCNC(=O)c1ccc(-c2ccnc(Nc3ccc(N4CCOCC4)cc3)n2)cc1 [Momelotinib sulfate]
inactive: [1]; 10 µM 0 | [2]; 10 µM 0 | [3]; 10 µM 0 | [4]; 10 µM 0 | [5]; 10 µM 0 | [6]; 10 µM 0 | [7]; 10 µM 0 | [8]; 10 µM 0 | [9]; 10 µM 0 | [10]; 10 µM 0

Quoted from the listing (2 entries):
CCS(=O)(=O)N1CCN(c2ccc(Nc3ncc(C(N)=O)c(NC4CC4)n3)cc2)CC1 [Cerdulatinib (hydrochloride)]
inactive: [1]; 10 µM 0 | [2]; 10 µM 0 | [3]; 10 µM 0 | [4]; 10 µM 0 | [5]; 10 µM 0 | [6]; 10 µM 0 | [7]; 10 µM 0 | [8]; 10 µM 0 | [9]; 10 µM 0 | [10]; 10 µM 0

CCc1nc(C(N)=O)c(Nc2ccc(N3CCC(N4CCN(C)CC4)CC3)c(OC)c2)nc1NC1CCOCC1 [Gilteritinib]
inactive: [1]; 2 µM 0 | [2]; 2 µM 0 | [3]; 2 µM 0 | [4]; 2 µM 0 | [5]; 2 µM 0 | [6]; 2 µM 0 | [7]; 2 µM 0 | [8]; 2 µM 0 | [9]; 2 µM 0 | [10]; 2 µM 0

(list continues)

C[S+]([O-])c1ccc(-c2nc(-c3ccc(F)cc3)c(-c3ccncc3)[nH]2)cc1 (stereo not given)
inactive: [1]; 10 µM 0 | [2]; 10 µM 0 | [3]; 10 µM 0 | [4]; 10 µM 0 | [5]; 10 µM 0 | [6]; 10 µM 0 | [7]; 10 µM 0 | [8]; 10 µM 0 | [9]; 10 µM 0 | [10]; 10 µM 0
